In paper PMC11347179:
Results are given in words; binding and its absence hold for the method and conditions named. For some assays here: Binding seen in cells or lysates may run through a third protein. Some entries that bind do so weakly or less than the wild type. Sequences can lack the tags named with a protein. Blank lines part the entries; values can stand above or below the binder they belong to.

Key:
Mug174-GFP (S. pombe) = target: T1, Mug174-GFP (S. pombe) (UniProt O74434); test: co-IP; S. pombe lysate (10 mM Tris-HCl pH 7.5, 150 mM NaCl, 0.5 mM EDTA, 0.5% NP40, 2.5 mM MgCl2); anti-GFP beads, 4°C, 2 h; western blot with anti-GFP or anti-myc
T1 sequence: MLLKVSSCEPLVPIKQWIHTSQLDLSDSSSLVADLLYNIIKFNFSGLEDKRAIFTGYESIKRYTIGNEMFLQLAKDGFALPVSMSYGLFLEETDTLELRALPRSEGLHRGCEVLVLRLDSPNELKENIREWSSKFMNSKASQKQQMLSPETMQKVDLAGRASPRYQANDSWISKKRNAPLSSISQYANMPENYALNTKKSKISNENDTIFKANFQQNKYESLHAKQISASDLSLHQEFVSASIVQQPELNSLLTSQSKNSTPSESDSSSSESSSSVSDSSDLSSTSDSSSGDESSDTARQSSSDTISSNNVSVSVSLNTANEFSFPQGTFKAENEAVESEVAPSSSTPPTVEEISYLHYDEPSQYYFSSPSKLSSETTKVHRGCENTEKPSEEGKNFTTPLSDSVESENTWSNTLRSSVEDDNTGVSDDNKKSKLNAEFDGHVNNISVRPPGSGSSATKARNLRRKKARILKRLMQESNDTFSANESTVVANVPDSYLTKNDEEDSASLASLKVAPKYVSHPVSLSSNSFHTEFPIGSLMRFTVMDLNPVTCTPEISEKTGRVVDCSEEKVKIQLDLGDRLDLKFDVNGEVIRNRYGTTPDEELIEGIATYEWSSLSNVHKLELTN

[1] = target: T2, Tgs1 (trimethylguanosine synthase) fused to the GAL4 binding domain (S. pombe) (UniProt Q09814); test: two-hybrid; GAL4 system in S. cerevisiae AH109; Mug174 on the GAL4 activation domain, Tgs1 on the GAL4 binding domain; growth on SD-Leu-Trp-His-Ade (most stringent), 30°C, 3 days
T2 sequence: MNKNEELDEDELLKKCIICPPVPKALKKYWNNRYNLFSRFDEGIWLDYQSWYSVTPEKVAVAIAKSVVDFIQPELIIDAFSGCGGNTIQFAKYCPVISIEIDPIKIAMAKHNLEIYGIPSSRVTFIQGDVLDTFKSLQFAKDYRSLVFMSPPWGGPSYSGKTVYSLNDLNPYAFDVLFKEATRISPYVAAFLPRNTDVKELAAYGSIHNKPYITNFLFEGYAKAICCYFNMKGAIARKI

binding (Mug174-GFP (S. pombe)): binds
B1: Tgs1-myc (enzyme, UniProt Q09814 1-239)
chain: T2 sequence

binding [1]: binds
B2: Mug174 (Meiosis-upregulated gene 174) fused to the GAL4 activation domain (protein, UniProt O74434 1-626)
chain: T1 sequence
